Data as given in PubChem BioAssay AID1259425 (University of Nebraska Medical Center, 2018)

- Test: 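Seek colon cancer weak points whose silencing resembles KSR1 loss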 (primary screen)
- Cell system: HCT116 human colon cancer cells
- Reagents: siRNA pool against human genes, 50 nM siRNA
- Detection: 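mRNA of six signature genes measured together by branched-DNA assay after 50 nM siRNA pool, blank removed, divided by geometric mean of two housekeeping genes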
- Direction: BNIP3L mRNA: higher = more BNIP3L transcript after knockdown; NDRG1 mRNA: higher = more NDRG1 transcript after knockdown
The deposit covers about 14,000 reagents; below is a part drawn at random. Not all columns of the deposit are shown. The record does not give: the time to read-out.

The opening 2 entries as a preview:
{"gene":"RAB3B (RAB3B, member RAS oncogene family)","BNIP3L mRNA, set 1":0.119,"NDRG1 mRNA, set 1":0.148}
{"gene":"NPAS3 (neuronal PAS domain protein 3)","BNIP3L mRNA, set 1":0.167,"NDRG1 mRNA, set 1":0.144}

The listing, repeating the preview:
{"gene":"RAB3B (RAB3B, member RAS oncogene family)","BNIP3L mRNA, set 1":0.119,"NDRG1 mRNA, set 1":0.148}
{"gene":"NPAS3 (neuronal PAS domain protein 3)","BNIP3L mRNA, set 1":0.167,"NDRG1 mRNA, set 1":0.144}
{"gene":"RASSF5 (Ras association domain family member 5)","BNIP3L mRNA, set 1":0.131,"NDRG1 mRNA, set 1":0.118}
{"gene":"MSTO1 (misato mitochondrial distribution and morphology regulator 1)","BNIP3L mRNA, set 1":0.0734,"NDRG1 mRNA, set 1":0.207}
{"gene":"ARRDC1-AS1 (ARRDC1 antisense RNA 1)","BNIP3L mRNA, set 1":0.13,"NDRG1 mRNA, set 1":0.336}
{"gene":"RCN1 (reticulocalbin 1)","BNIP3L mRNA, set 1":0.0746,"NDRG1 mRNA, set 1":0.14}
{"gene":"LRTM1 (leucine rich repeat transmembrane protein 1)","BNIP3L mRNA, set 1":0.63,"NDRG1 mRNA, set 1":1.16}
{"gene":"ACVR1 (activin A receptor type 1)","BNIP3L mRNA, set 1":0.124,"NDRG1 mRNA, set 1":0.424}
{"gene":"IFNGR2 (interferon gamma receptor 2)","BNIP3L mRNA, set 1":0.0714,"NDRG1 mRNA, set 1":0.122}
{"gene":"NR2C2 (nuclear receptor subfamily 2 group C member 2)","BNIP3L mRNA, set 1":0.134,"NDRG1 mRNA, set 1":0.526}
{"gene":"SLC35A2","BNIP3L mRNA, set 1":0.215,"NDRG1 mRNA, set 1":0.363}
{"gene":"PCDHB8 (protocadherin beta 8)","BNIP3L mRNA, set 1":0.0918,"NDRG1 mRNA, set 1":0.444}
{"gene":"C14orf93 (chromosome 14 open reading frame 93)","BNIP3L mRNA, set 1":0.137,"NDRG1 mRNA, set 1":0.065}
{"gene":"CHD8 (chromodomain helicase DNA binding protein 8)","BNIP3L mRNA, set 1":0.118,"NDRG1 mRNA, set 1":0.351}
{"gene":"CD14 (CD14 molecule)","BNIP3L mRNA, set 1":0.0867,"NDRG1 mRNA, set 1":0.236}
{"gene":"LRP8 (LDL receptor related protein 8)","BNIP3L mRNA, set 1":0.0531,"NDRG1 mRNA, set 1":1.04}
{"gene":"MAGEB3 (MAGE family member B3)","BNIP3L mRNA, set 1":0.08,"NDRG1 mRNA, set 1":0.104}
{"gene":"MVK (mevalonate kinase)","BNIP3L mRNA, set 1":0.153,"NDRG1 mRNA, set 1":0.0578}
{"gene":"ARHGEF3 (Rho guanine nucleotide exchange factor 3)","BNIP3L mRNA, set 1":0.122,"NDRG1 mRNA, set 1":0.223}
